Laboratory results: PubChem BioAssay AID743121 (NCATS, 2013)
Test: 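Genes whose silencing strengthens cell killing by camptothecin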 (primary screen). System: MDA-MB-231 cells, a human breast cancer line. Reagent: single siRNA against human genes, 20 nM siRNA (0.8 pmol per well). Duration: 120 h (drug added 48 h after transfection, read 72 h later). Challenge: camptothecin 20 nM (about EC30) for 72 h; vehicle 0.1% DMSO in parallel plates. Measured: 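Cell viability by ATP luminescence (CellTiter-Glo) as % of non-targeting siRNA wells, and the log2 ratio of viability without drug over viability with camptothecin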. Direction: log2 vehicle/camptothecin viability: higher = stronger sensitisation to camptothecin. Call rule: 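Each gene scored by redundant siRNA activity (RSA) over its individual siRNA ratios; a gene is called active at p < 0.001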.
Shown is an unselected part of about 26,000 deposited reagents. 167 of them (0.63%) count as active. 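Calls are per gene from RSA p-values that are not deposited; an individual active-marked siRNA can sensitise only weakly.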 Unmarked entries are inactive. The numbers tell different reagents against one gene apart. Not all columns of the deposit are shown.

For OR10A4 (GeneID 283297) #1, the values are log2 vehicle/camptothecin viability 0.376. OR10A4 (GeneID 283297) #2 gave log2 vehicle/camptothecin viability -0.152. Against OR10A4 (GeneID 283297) #3, the entry reads log2 vehicle/camptothecin viability 0.65. With knock-down of OR10A4 (GeneID 283297) #4, the screen gave log2 vehicle/camptothecin viability -0.165. After knock-down of PPP2R2D (GeneID 55844) #1, the screen gave log2 vehicle/camptothecin viability 0.129. PPP2R2D (GeneID 55844) #2 scored log2 vehicle/camptothecin viability -0.284.

After knock-down of PPP2R2D (GeneID 55844) #3, the record shows log2 vehicle/camptothecin viability 0.519. Against PPP2R2D (GeneID 55844) #4, the entry reads log2 vehicle/camptothecin viability -0.102. KCNQ4 (GeneID 9132) #1 scored log2 vehicle/camptothecin viability 0.309. For KCNQ4 (GeneID 9132) #2, the values are log2 vehicle/camptothecin viability -0.265. For KCNQ4 (GeneID 9132) #3, the entry reads log2 vehicle/camptothecin viability 0.352. For KCNQ4 (GeneID 9132) #4, the entry reads log2 vehicle/camptothecin viability -0.25.

Against PHF1 (GeneID 5252) #1, the entry reads log2 vehicle/camptothecin viability -0.59. With knock-down of PHF1 (GeneID 5252) #2, the screen gave log2 vehicle/camptothecin viability 0.424. After knock-down of PHF1 (GeneID 5252) #3, the record shows log2 vehicle/camptothecin viability -0.287. MMP24 (GeneID 10893) #1 gave log2 vehicle/camptothecin viability 0.484. MMP24 (GeneID 10893) #2 showed log2 vehicle/camptothecin viability -0.458. MMP24 (GeneID 10893) #3 showed log2 vehicle/camptothecin viability -0.0125.

After knock-down of MMP24 (GeneID 10893) #4, the screen gave log2 vehicle/camptothecin viability 0.452. Against SBK1 (GeneID 388228) #1 the deposit lists log2 vehicle/camptothecin viability 1.36. SBK1 (GeneID 388228) #2 showed log2 vehicle/camptothecin viability 0.11. SBK1 (GeneID 388228) #3 gave log2 vehicle/camptothecin viability -0.141. SBK1 (GeneID 388228) #4 gave log2 vehicle/camptothecin viability -0.0129.

Already shown: entries from further up.
KCNQ4 (GeneID 9132) #4 | log2 vehicle/camptothecin viability: -0.25
PHF1 (GeneID 5252) #1 | log2 vehicle/camptothecin viability: -0.59
PHF1 (GeneID 5252) #2 | log2 vehicle/camptothecin viability: 0.424
PHF1 (GeneID 5252) #3 | log2 vehicle/camptothecin viability: -0.287
MMP24 (GeneID 10893) #1 | log2 vehicle/camptothecin viability: 0.484
MMP24 (GeneID 10893) #2 | log2 vehicle/camptothecin viability: -0.458
MMP24 (GeneID 10893) #3 | log2 vehicle/camptothecin viability: -0.0125
MMP24 (GeneID 10893) #4 | log2 vehicle/camptothecin viability: 0.452

The list goes on.
With knock-down of MMP10 (GeneID 4319) #1, the screen gave log2 vehicle/camptothecin viability -0.0848. With knock-down of MMP10 (GeneID 4319) #2 the results were log2 vehicle/camptothecin viability 0.273. MMP10 (GeneID 4319) #3 showed log2 vehicle/camptothecin viability -0.309. MMP10 (GeneID 4319) #4 showed log2 vehicle/camptothecin viability -0.507. With knock-down of SLC19A2 (GeneID 10560) #1, the record shows log2 vehicle/camptothecin viability -0.0491. For SLC19A2 (GeneID 10560) #2 the deposit lists log2 vehicle/camptothecin viability 0.0449.

Against SLC19A2 (GeneID 10560) #3 the deposit lists log2 vehicle/camptothecin viability 0.00786. Silencing of GRIK4 (GeneID 2900) #1 gave: log2 vehicle/camptothecin viability 0.407. GRIK4 (GeneID 2900) #2 scored log2 vehicle/camptothecin viability -0.506. Depletion of GRIK4 (GeneID 2900) #3 came out at: log2 vehicle/camptothecin viability -0.199. Against GRIK4 (GeneID 2900) #4, the values are log2 vehicle/camptothecin viability -0.224. Depletion of PPP1R3F (GeneID 89801) #1 resulted in: log2 vehicle/camptothecin viability -0.105.

PPP1R3F (GeneID 89801) #2 scored log2 vehicle/camptothecin viability -0.324. PPP1R3F (GeneID 89801) #3 gave log2 vehicle/camptothecin viability -0.194. Against PPP1R3F (GeneID 89801) #4 the deposit lists log2 vehicle/camptothecin viability -0.316. FRRS1 (GeneID 391059) #1 scored log2 vehicle/camptothecin viability -0.234. With knock-down of FRRS1 (GeneID 391059) #2, the record shows log2 vehicle/camptothecin viability -0.465. For FRRS1 (GeneID 391059) #3, the values are log2 vehicle/camptothecin viability -0.0448.

With knock-down of KCNQ5 (GeneID 56479) #1 the results were log2 vehicle/camptothecin viability -0.212. After knock-down of KCNQ5 (GeneID 56479) #2, the record shows log2 vehicle/camptothecin viability -0.025. Silencing of KCNQ5 (GeneID 56479) #3 resulted in: log2 vehicle/camptothecin viability -0.0607. Depletion of KCNQ5 (GeneID 56479) #4 resulted in: log2 vehicle/camptothecin viability 0.0136.
